# The supplement of paper PMC10849652
# By UniProt entry, the sequences of proteins in these tests, tags left out. Where a name states a change or a piece, a line headed by the entry shows the natural chain unless it says otherwise.
# UniProt P78540: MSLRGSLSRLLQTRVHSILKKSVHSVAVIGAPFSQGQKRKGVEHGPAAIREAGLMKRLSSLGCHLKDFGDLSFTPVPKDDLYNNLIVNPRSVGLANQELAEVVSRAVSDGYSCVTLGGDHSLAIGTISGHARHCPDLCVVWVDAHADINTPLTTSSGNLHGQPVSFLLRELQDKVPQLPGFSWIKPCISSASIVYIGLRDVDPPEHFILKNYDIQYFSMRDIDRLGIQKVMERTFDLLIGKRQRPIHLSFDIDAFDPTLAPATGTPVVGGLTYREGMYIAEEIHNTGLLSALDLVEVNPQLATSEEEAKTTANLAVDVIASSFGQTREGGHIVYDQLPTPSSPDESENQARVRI
# UniProt Q9H8Y5: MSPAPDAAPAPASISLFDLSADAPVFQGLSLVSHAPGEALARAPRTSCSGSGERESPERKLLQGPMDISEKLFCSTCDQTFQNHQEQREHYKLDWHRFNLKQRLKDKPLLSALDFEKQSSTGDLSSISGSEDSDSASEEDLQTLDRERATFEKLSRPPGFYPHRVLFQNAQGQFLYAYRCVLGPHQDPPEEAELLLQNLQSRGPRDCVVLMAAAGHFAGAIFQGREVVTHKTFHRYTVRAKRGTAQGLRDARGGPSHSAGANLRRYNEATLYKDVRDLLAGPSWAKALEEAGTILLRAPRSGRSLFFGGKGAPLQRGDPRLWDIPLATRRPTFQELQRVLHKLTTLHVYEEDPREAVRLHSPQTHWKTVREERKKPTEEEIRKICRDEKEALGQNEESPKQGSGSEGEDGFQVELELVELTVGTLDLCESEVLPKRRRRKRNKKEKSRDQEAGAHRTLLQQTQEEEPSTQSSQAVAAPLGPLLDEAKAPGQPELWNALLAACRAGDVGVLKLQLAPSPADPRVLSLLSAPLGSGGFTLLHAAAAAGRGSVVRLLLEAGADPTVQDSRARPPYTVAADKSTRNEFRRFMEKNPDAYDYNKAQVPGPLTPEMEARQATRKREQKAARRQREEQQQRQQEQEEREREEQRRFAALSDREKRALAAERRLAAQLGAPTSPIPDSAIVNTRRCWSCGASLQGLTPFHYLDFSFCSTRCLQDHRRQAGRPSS
# UniProt Q01484: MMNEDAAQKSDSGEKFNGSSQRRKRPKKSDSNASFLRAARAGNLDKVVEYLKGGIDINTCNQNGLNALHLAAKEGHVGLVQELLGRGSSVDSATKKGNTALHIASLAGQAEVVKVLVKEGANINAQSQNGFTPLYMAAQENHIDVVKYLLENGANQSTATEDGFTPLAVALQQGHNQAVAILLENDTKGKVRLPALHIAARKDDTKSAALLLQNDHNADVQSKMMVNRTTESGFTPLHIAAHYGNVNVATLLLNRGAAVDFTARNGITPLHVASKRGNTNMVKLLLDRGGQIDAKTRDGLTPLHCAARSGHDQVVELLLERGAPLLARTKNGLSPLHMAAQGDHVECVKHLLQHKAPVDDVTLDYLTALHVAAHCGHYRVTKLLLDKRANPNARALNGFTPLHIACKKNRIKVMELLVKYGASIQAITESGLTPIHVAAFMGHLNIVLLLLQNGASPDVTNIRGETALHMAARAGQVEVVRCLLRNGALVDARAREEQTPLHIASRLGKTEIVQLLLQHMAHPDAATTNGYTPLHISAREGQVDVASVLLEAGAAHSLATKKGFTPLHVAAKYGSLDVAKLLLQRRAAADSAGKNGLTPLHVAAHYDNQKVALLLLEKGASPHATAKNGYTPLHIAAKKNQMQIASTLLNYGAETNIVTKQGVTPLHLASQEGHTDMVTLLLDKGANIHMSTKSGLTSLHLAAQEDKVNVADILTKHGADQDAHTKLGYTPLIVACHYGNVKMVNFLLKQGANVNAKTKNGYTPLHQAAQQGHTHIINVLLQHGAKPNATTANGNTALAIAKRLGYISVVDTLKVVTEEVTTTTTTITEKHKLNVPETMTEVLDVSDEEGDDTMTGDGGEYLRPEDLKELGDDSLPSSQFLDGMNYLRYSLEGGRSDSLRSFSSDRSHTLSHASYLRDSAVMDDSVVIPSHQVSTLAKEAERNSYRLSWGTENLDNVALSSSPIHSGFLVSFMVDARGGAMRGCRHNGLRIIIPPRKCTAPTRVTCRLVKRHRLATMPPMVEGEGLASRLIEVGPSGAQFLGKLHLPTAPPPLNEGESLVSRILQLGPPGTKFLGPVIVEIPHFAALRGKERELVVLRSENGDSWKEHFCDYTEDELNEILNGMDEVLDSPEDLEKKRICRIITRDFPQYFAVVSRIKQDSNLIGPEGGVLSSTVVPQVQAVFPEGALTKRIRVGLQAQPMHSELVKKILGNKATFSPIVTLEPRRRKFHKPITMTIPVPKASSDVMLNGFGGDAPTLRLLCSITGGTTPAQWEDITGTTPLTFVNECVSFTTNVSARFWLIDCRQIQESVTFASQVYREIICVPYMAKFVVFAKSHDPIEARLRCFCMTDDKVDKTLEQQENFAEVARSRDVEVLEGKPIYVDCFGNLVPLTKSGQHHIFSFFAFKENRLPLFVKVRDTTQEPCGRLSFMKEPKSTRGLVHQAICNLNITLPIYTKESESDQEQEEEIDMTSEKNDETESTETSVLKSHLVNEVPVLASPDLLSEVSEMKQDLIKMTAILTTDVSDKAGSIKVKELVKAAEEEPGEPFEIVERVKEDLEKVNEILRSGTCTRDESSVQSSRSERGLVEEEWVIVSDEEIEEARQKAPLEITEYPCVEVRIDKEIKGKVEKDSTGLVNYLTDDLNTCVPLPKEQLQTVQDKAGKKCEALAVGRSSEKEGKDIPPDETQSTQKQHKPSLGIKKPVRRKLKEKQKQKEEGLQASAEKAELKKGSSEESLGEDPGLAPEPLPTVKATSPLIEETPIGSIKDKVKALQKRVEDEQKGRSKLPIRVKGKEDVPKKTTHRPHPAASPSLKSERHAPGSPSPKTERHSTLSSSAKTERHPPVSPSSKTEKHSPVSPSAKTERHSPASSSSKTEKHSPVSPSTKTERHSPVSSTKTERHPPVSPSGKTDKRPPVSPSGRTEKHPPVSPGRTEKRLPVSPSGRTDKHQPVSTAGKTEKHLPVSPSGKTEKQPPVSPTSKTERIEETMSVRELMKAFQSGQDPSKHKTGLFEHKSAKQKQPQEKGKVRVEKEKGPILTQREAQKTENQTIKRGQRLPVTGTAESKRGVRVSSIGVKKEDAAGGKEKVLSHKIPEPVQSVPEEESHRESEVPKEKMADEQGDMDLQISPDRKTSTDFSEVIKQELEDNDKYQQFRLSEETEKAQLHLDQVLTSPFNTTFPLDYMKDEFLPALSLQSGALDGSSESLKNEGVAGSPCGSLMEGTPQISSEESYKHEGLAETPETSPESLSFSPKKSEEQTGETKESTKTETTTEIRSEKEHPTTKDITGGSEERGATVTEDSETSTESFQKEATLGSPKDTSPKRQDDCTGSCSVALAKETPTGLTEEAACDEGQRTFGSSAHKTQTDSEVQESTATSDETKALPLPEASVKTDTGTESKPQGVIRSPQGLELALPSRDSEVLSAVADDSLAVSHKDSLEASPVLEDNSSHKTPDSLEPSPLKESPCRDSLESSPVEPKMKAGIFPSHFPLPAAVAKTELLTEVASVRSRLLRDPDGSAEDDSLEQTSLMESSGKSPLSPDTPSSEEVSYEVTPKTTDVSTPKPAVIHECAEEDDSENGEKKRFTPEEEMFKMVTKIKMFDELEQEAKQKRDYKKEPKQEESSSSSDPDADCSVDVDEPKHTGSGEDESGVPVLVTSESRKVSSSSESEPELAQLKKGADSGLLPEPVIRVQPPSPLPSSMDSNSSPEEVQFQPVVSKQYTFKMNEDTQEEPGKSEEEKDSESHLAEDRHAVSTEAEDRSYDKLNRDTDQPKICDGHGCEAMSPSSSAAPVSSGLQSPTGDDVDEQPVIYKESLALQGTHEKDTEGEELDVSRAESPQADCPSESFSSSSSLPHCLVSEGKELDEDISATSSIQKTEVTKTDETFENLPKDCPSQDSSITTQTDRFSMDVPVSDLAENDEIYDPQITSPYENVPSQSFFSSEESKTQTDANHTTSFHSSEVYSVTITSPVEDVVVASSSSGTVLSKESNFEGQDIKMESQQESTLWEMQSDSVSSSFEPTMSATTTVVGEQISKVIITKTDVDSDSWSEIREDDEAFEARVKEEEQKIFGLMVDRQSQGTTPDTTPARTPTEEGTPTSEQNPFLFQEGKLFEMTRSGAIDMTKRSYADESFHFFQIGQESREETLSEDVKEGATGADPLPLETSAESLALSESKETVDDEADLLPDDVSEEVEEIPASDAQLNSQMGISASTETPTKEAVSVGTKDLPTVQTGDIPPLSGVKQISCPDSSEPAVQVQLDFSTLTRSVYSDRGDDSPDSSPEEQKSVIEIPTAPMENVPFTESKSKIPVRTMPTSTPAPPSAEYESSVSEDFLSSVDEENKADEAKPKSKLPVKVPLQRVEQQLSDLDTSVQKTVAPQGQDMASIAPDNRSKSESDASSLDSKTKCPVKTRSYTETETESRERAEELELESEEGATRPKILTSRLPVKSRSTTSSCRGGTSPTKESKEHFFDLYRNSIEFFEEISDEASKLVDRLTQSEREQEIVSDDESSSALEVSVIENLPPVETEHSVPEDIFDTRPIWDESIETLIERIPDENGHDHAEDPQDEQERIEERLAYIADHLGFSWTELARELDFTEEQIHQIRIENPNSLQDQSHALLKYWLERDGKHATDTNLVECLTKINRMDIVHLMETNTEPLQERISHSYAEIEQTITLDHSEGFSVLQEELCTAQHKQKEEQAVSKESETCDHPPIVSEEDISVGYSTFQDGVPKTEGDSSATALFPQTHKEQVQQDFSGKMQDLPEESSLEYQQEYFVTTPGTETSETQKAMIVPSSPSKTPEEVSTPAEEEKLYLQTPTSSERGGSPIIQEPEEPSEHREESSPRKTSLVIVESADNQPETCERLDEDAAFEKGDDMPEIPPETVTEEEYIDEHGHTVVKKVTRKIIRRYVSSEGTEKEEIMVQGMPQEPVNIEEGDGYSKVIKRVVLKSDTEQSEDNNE
# UniProt Q9NRY4: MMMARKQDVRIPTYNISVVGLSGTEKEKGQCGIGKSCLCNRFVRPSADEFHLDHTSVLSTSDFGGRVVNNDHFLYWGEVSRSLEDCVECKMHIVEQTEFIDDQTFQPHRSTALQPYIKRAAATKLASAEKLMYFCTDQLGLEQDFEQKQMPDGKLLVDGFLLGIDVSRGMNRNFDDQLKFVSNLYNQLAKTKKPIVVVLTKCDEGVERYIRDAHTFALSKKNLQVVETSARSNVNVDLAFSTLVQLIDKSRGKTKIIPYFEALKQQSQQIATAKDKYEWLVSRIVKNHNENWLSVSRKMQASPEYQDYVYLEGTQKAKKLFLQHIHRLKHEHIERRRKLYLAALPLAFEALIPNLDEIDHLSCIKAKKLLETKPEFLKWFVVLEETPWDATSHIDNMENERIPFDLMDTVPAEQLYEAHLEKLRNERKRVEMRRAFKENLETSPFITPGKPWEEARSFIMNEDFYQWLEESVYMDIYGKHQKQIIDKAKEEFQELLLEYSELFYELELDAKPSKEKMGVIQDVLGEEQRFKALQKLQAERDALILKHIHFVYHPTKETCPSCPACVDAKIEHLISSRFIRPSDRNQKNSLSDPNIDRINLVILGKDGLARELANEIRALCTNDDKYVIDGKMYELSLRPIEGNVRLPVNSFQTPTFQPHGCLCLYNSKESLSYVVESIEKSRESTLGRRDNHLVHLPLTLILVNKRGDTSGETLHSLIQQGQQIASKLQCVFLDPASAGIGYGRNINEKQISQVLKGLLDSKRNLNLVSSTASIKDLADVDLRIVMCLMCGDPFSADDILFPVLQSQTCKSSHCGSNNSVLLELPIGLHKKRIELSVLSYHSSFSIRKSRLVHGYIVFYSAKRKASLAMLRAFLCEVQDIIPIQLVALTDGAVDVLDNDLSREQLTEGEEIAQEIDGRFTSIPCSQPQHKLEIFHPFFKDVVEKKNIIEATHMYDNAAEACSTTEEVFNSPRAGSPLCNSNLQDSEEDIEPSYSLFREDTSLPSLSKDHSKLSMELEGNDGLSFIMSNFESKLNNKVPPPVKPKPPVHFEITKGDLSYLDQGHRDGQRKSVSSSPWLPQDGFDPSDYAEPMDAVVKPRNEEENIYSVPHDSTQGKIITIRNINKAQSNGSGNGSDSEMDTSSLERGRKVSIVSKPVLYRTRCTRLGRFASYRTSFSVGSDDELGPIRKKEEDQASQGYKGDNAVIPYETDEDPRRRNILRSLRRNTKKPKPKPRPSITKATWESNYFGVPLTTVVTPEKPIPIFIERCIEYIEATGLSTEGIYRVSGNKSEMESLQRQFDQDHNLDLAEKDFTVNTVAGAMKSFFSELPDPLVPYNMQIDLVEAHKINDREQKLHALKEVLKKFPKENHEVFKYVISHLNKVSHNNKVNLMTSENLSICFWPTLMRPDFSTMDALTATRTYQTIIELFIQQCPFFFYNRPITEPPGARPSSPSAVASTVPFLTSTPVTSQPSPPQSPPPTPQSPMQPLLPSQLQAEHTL
# This is one part of the list.
# What was measured:
# Assay in all cases: log2 fold change, soluble protein after heating vs DMSO (PISA); higher = thermal stabilisation; K562 cells, 10 uM, 30 min; active = over 0.2 and 3.5 SD of the protein, either way, in both replicates (recomputed)
# [1] = compound: CC[C@@H]1C(=O)N(C)c2cnc(Nc3ccc(C(=O)NC4CCN(C)CC4)cc3OC)nc2N1C1CCCC1
# Outline: (§1)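 Soluble protein was defined as the supernatant after 21,000xg for 90 min. It came from K562 cells at 2×10^6 cells/mL given 10 μM compound for 30 min, heated in aliquots for 3 min across 48°C-58°C, pooled, and extracted in PBS with 0.5% NP-40 at 4°C, and was quantified by TMTpro 16plex LC-MS/MS with equalised channel sums. Thermal stability against control samples, from duplicates, is reported as log2 fold change.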
# [2] = compound: CC[C@@H]1C(=O)N(C)c2cnc(Nc3ccc(C(=O)N[C@H]4CC[C@H](N5CCN(CC6CC6)CC5)CC4)cc3OC)nc2N1C(C)C [volasertib]
# Outline: as §1
# [3] = compound: CC[C@H](C)N1C=C(C2=C(C=C(C=C21)C3=CN=C(C=C3)N4CCNCC4)C(=O)NCC5=C(C=C(NC5=O)C)C)C
# Outline: as §1
# [4] = compound: CC[C@H](C)[C@@H](C(=O)N[C@@H]([C@@H](C)O)C(=O)N[C@@H](CC(C)C)C(=O)[C@]1(CO1)C)NC(=O)[C@H]([C@@H](C)CC)N(C)C(=O)C [epoxomicin]
# Outline: as §1
# [5] = compound: CCn1c(C(=O)N(C2CC2)C2CC2)cc2c3c(ncn3C)c(Nc3cc(C)n(C)n3)nc21
# Outline: as §1
# [6] = compound: CCn1cc(-c2ccnc3[nH]c(-c4cccc(CN(C)C)c4)cc23)c(-c2ccc(NC(=O)N(C)C)cc2)n1
# Outline: as §1
# [7] = compound: CN(C)CC(=O)Nc1ccc2[nH]c(=O)c3ccccc3c2c1
# Outline: as §1
# [8] = compound: CN(CCOC1=CC=C(C=C1)C[C@H]2C(=O)NC(=O)S2)C3=CC=CC=N3 (racemic) [rosiglitazone]
# Outline: as §1
# [9] = compound: CN1C2=C(C3=C1C(=O)N(N=C3)CC4=CC(=CC=C4)N)SC(=C2)S(=O)C
# Outline: as §1
# [10] = compound: CN1CCC(CNc2ccc3ncc(-c4cccc(OC(F)(F)F)c4)n3n2)CC1
# Outline: as §1
Target,log2 fold change [1],log2 fold change [2],log2 fold change [3],log2 fold change [4],log2 fold change [5],log2 fold change [6],log2 fold change [7],log2 fold change [8],log2 fold change [9],log2 fold change [10]
ARG2 (UniProt P78540),inactive: 0.017,inactive: 0.019,inactive: -0.043,inactive: -0.038,inactive: 0.038,inactive: -0.013,inactive: -0.018,inactive: 0.026,inactive: 0.03,inactive: 0.057
ANKZF1 (UniProt Q9H8Y5),inactive: -0.063,inactive: -0.055,inactive: 0.036,inactive: -0.001,,inactive: 0.004,inactive: -0.076,,inactive: 0.214,inactive: 0.066
ANKRD28 (UniProt O15084),inactive: -0.04,inactive: -0.117,inactive: 0.025,inactive: 0.049,inactive: -0.02,inactive: -0.055,inactive: 0.002,inactive: 0.007,inactive: -0.019,inactive: -0.118
ARHGAP18 (UniProt Q8N392),inactive: -0.063,inactive: -0.401,inactive: 0.071,inactive: 0.03,inactive: -0.068,inactive: -0.022,inactive: 0.083,inactive: 0.025,inactive: 0.003,inactive: -0.089
APAF1 (UniProt O14727),inactive: -0.123,inactive: -0.076,inactive: 0.187,inactive: -0.045,,inactive: -0.009,inactive: 0.037,,inactive: 0.148,inactive: -0.088
ARGLU1 (UniProt Q9NWB6),inactive: 0.094,inactive: -0.004,inactive: 0.033,inactive: -0.106,,inactive: 0.138,inactive: 0.003,,inactive: 0.068,inactive: 0
APOM (UniProt O95445),inactive: 0.083,inactive: 0.22,,inactive: -0.193,inactive: 0.069,inactive: 0.031,inactive: -0.116,inactive: 0.181,inactive: 0.139,inactive: 0.038
AP2B1 isoform 2 (UniProt P63010),inactive: 0.065,inactive: -0.064,inactive: -0.001,inactive: -0.004,,inactive: -0.021,inactive: -0.007,,inactive: -0.016,inactive: 0.045
AP4S1 (UniProt Q9Y587),inactive: -0.117,inactive: -0.321,inactive: 0.059,inactive: -0.006,,,inactive: 0.027,,inactive: 0.078,
AP2M1 (UniProt Q96CW1),inactive: 0.072,inactive: -0.041,inactive: 0,inactive: 0.002,,inactive: -0.006,inactive: -0.046,,inactive: 0.023,inactive: 0.006
ANK2 (UniProt Q01484),inactive: 0.049,inactive: -0.071,inactive: -0.003,,,inactive: 0.122,inactive: -0.018,,inactive: -0.128,inactive: -0.223
ARHGAP22 isoform 2 (UniProt Q7Z5H3),inactive: 0.062,inactive: -0.126,,,,inactive: -0.179,inactive: -0.004,,,inactive: -0.039
ARHGAP35 (UniProt Q9NRY4),inactive: -0.028,inactive: -0.11,,inactive: 0.01,inactive: -0.107,inactive: -0.007,inactive: -0.159,,inactive: 0.255,inactive: -0.041
ARFGAP2 (UniProt Q8N6H7),inactive: -0.052,active: -0.257,inactive: 0.067,inactive: 0.009,,inactive: 0.023,inactive: 0.017,,inactive: -0.015,inactive: -0.068
ARF4 (UniProt P18085),inactive: 0.064,inactive: 0.094,inactive: 0.009,inactive: 0.112,,inactive: 0.014,inactive: 0.041,,inactive: -0.076,inactive: 0.097
AP2A1 (UniProt O95782),inactive: 0.076,inactive: -0.085,inactive: 0.015,inactive: -0.011,,inactive: -0.002,inactive: -0.041,,inactive: 0.005,inactive: 0

# A different layout for some results above:
Target | log2 fold change [1] | log2 fold change [2] | log2 fold change [3] | log2 fold change [4] | log2 fold change [5] | log2 fold change [6] | log2 fold change [7] | log2 fold change [8] | log2 fold change [9] | log2 fold change [10]
AP2B1 isoform 2 (UniProt P63010) | inactive: 0.065 | inactive: -0.064 | inactive: -0.001 | inactive: -0.004 |  | inactive: -0.021 | inactive: -0.007 |  | inactive: -0.016 | inactive: 0.045
AP4S1 (UniProt Q9Y587) | inactive: -0.117 | inactive: -0.321 | inactive: 0.059 | inactive: -0.006 |  |  | inactive: 0.027 |  | inactive: 0.078 | 
